Test results from patent publication US20230101273A1, “MESOIONIC INSECTICIDES” (FMC Corporation, priority 2020, published 2023).
Some entries share one result that the patent states for a list of compounds.

What was measured:
Type in all cases: in vivo
[1] = system: diamondback moth (Plutella xylostella (L.)); experiment: Test A: control of diamondback moth on mustard plant, spray; conditions: 6 days, neonate larvae on mustard plant
[2] = system: corn planthopper (Peregrinus maidis (Ashmead)); experiment: Test C: control of corn planthopper through contact and/or systemic means; conditions: sprayed at 50 ppm; 6 days; nymphs on corn plant
Procedure: (§1) Test compounds were formulated using a solution containing 10% acetone, 90% water and 300 ppm Activator 900 non-ionic surfactant (Loveland Products, Loveland, Colo., USA). The formulated compounds were applied in 1 mL of liquid through an atomizer nozzle positioned 1.27 cm (0.5 inches) above the top of each test unit. Test compounds were sprayed at the rates indicated, and each test was replicated three times.
For evaluating control of corn planthopper (Peregrinus maidis (Ashmead)) through contact and/or systemic means, the test unit consisted of a small open container with a 3-4-day-old corn (maize) plant inside. White sand was added to the top of the soil prior to application of the test compound.
(§2) Test compounds were formulated and sprayed at 50 ppm. After spraying of the formulated test compound, the test units were allowed to dry for 1 h before they were post-infested with ˜15-20 nymphs (18-to-21-day-old). A black, screened cap was placed on the top of each test unit, and the test units were held for 6 days in a growth chamber at 22-24° C. and 50-70% relative humidity. Each test unit was then visually assessed for insect mortality.

[3] = system: green peach aphid (Myzus persicae (Sulzer)); experiment: Test E: control of green peach aphid through contact and/or systemic means; conditions: sprayed at 50 ppm; 6 days; radish plant
Procedure: as §1
For evaluating control of green peach aphid (Myzus persicae (Sulzer)) through contact and/or systemic means, the test unit consisted of a small open container with a 12-15-day-old radish plant inside. This was pre-infested by placing on a leaf of the test plant 30-40 aphids on a piece of leaf excised from a culture plant (cut-leaf method). The aphids moved onto the test plant as the leaf piece desiccated. After pre-infestation, the soil of the test unit was covered with a layer of sand.
Test compounds were formulated and sprayed at 50 ppm. After spraying of the formulated test compound, each test unit was allowed to dry for 1 hour and then a black, screened cap was placed on top. The test units were held for 6 days in a growth chamber at 19-21° C. and 50-70% relative humidity. Each test unit was then visually assessed for insect mortality.

[4] = system: cotton melon aphid (Aphis gossypii (Glover)); experiment: Test F: control of cotton melon aphid through contact and/or systemic means; conditions: sprayed at 50 ppm; 6 days; okra plant
[5] = system: fall armyworm (Spodoptera frugiperda (J. E. Smith)); experiment: Test B: control of fall armyworm on corn plant, spray; conditions: 6 days, 1-day-old larvae on corn plant
[6] = system: potato leafhopper (Empoasca fabae (Harris)); experiment: Test D: control of potato leafhopper through contact and/or systemic means; conditions: sprayed at 50 ppm; 6 days; adults on Soleil bean plant
Procedure: as §1
For evaluating control of potato leafhopper (Empoasca fabae (Harris)) through contact and/or systemic means, the test unit consisted of a small open container with a 5-6-day-old Soleil bean plant (primary leaves emerged) inside. White sand was added to the top of the soil, and one of the primary leaves was excised prior to application of the test compound.
as §2, with “1 hour” for “1 h”, “with 5 potato leafhoppers (18-to-21-day-old adults).” for “with ˜15-20 nymphs (18-to-21-day-old).”, “of the” for “of each”, “at 20°” for “at 22-24°”, “and 70%” for “and 50-70%”

SMILES	control efficacy: feeding damage (40% or less feeding damage and/or 100% mortality) ([1]; sprayed at 0.4 ppm)	control efficacy: feeding damage (40% or less feeding damage and/or 100% mortality) ([1]; sprayed at 2 ppm)	control efficacy: feeding damage (40% or less feeding damage and/or 100% mortality) ([1]; sprayed at 10 ppm)	mortality [2]	mortality [3]	mortality [4]	control efficacy: feeding damage (40% or less feeding damage and/or 100% mortality) ([5]; sprayed at 0.4 ppm)	control efficacy: feeding damage (40% or less feeding damage and/or 100% mortality) ([5]; sprayed at 2 ppm)	control efficacy: feeding damage (40% or less feeding damage and/or 100% mortality) ([5]; sprayed at 10 ppm)	mortality [6]
Cc1cccn2c(=O)c(-c3cccc(C#Cc4ccc(Cl)cc4)c3)c([O-])[n+](Cc3cnc(Cl)s3)c12 [Compound 48]	≤ 40%	≤ 40%	≤ 40%	at least 80%	at least 80%	at least 80%	≤ 40%	≤ 40%	≤ 40%	at least 80%
CCC#Cc1cc(C)cc(-c2c([O-])[n+](Cc3cnc(Cl)s3)c3c(C)cccn3c2=O)c1 [Compound 77]	≤ 40%	≤ 40%	≤ 40%	at least 80%	at least 80%	at least 80%	–	≤ 40%	≤ 40%	at least 80%
Cc1cccn2c(=O)c(-c3cccc(C#CC(C)(C)O)c3)c([O-])[n+](Cc3cnc(Cl)s3)c12 [Compound 3]	–	≤ 40%	≤ 40%	at least 80%	at least 80%	at least 80%	–	–	≤ 40%	at least 80%
